Test results taken from paper PMC11053489 (Viruses, 2024).

Tests used:
[1] = system: SARS-CoV-2 (hCoV-19/USA-WA1/2020) in Calu-3 cells; assay: microbe, parasite or virus in culture; type: cell-based; details: Severe acute respiratory syndrome coronavirus 2, Calu-3; MOI 0.01, 72 h, 2% FBS
[2] = system: SARS-CoV-2 (hCoV-19/USA-WA1/2020) in Caco-2 cells; assay: microbe, parasite or virus in culture; details: Severe acute respiratory syndrome coronavirus 2, Caco-2, 72 h, read-out: Caco-2 SARS-CoV-2 EC50

Which results are given for `CC(C)OC(=O)C(C)(C)Oc1ccc(C(=O)c2ccc(Cl)cc2)cc1` [Fenofibrate]?
EC50 [1]: > 100 µM; EC50 [2]: > 100 µM
